# Library screening results

Source: ChEMBL document CHEMBL3988442, “University of Dundee, Small-Polar-MMV Screening Library” (2021).

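Whole-cell assay for inhibitors of Mycobacterium tuberculosis growth, labelled Cornell in the record; the read-out is not stated. The concentration is filed as 10 mM, unlikely as a test dose, so the dose is not known. The record gives no direction; compounds strong in two other growth screens of this library score well above the rest, so higher reads as stronger inhibition. About 53,000 compounds were tested under these conditions; 1.7% (about 900) showed 50% or more at least once.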

Results are given as percent effect.
The record does not define 0% and 100%; most values in the screen are far below 50% and negative numbers occur (in some assays of this library far below -100).
Compounds were drawn at random from those tested, without regard to their results.

COC1CCN(S(=O)(=O)N2CCC3(CCCNC3=O)C2)CC1 (stereo not given) gave -30.92%.
CN(C)S(=O)(=O)NCCn1nc(-c2ccccc2)n(C)c1=O gave 11.19%.
Cc1ccc(NC(C)C(=O)NCc2cccs2)cc1C (stereo not given) gave -27.47%.
Cc1cc(O)c(OCC(=O)Nc2nc3c(s2)CCCCC3)cn1 gave -3.055%.
CN([C@@H]1CCC[C@@H](n2ccnc2)[C@@H]1O)S(=O)(=O)c1cn(C)cn1 gave -25.11%.
CN(C)C(=O)CN1CCCC(Cc2ccc(N3CCCC3)nn2)C1 (stereo not given) gave -25.95%.
CC(=O)N1CCC(C(=O)N(CC(F)F)c2cccc(Cl)c2)CC1 gave -39.46%.
CNc1nc(C)c(C(=O)N2CCCCC2CCN2CCOCC2)s1 (stereo not given) gave -34.93%.
CN(C(=O)CCN1CCCC1=O)c1cc(C#N)c2ccccc2n1 gave 34.58%.
[H][C@@]12C[C@@H](O)C[C@]1([H])CN(Cc1cc(C(C)(C)C)ccc1OCC(=O)O)C2 gave -8.402%.
Cc1cccc(CN2CCC3(CCN(c4ccccn4)C3)C2=O)c1.O=C(O)C(F)(F)F (stereo not given) gave 27.3%.
O=C(NCCc1noc(C2CCCC2)n1)c1cn2ccsc2n1 gave -6.383%.
Cc1nc(C)c(CC(=O)N2C[C@@H](C(=O)O)[C@H](c3ccncc3)C2)s1 gave 13.27%.
CC(C)(CNc1c(C#N)cnc2ccc(Cl)cc12)C(N)=O gave 0.1643%.
Cl.Cl.O=C(NCc1cncc2c1CCN(Cc1ccc(F)cc1)C2)C1CC1 gave -2.349%.
Cc1cccc(CN(Cc2ccccn2)Cc2ncc(C(C)(C)C)o2)c1 gave 69.04%.
COC(=O)c1ccc(C(=O)N2CCCC(Nc3ccc(F)cc3)C2)cc1 (stereo not given) gave 23.31%.
Fc1cnc(N2CCOC3(CCN(Cc4cccs4)CC3)C2)nc1.O=C(O)C(F)(F)F.O=C(O)C(F)(F)F gave 5.693%.
CN(C)C1CCCN(C(=O)NCCC(C)(C)C)C1 (stereo not given) gave -10.44%.
COC(=O)NCC(=O)N1CCCC(c2ncc[nH]2)C1 (stereo not given) gave -8.787%.
Fc1cnc(N2CCCn3c(CN4CCOCC4)nnc3C2)nc1.O=C(O)C(F)(F)F.O=C(O)C(F)(F)F gave 16.41%.
O=C(O)C(F)(F)F.O=C(c1ccoc1)N1CCOCC2(CCN(C3CCOCC3)C2)C1 (stereo not given) gave 4.632%.
Cn1cc(N2CCCC(SCc3nc(C4CC4)no3)C2=O)cn1 (stereo not given) gave -5.692%.
Cn1cc(N2CC3(COCCN(Cc4ccccn4)C3)OCC2=O)cn1.O=C(O)C(F)(F)F (stereo not given) gave -12.78%.
Cc1cc(Cc2ccc(F)cc2)cc(C2CCCNC2)n1 (stereo not given) gave -32.95%.
O=C(O)Cn1ccc(=O)c2cc(Cl)ccc21 gave 10.23%.
O=C1CC(c2ncc(-c3ccc4c(c3)OCCO4)[nH]2)CN1C1CC1 (stereo not given) gave 10.33%.
O=C1CCC(c2nc(C3CCNCC3)no2)N1 (stereo not given) gave 22.14%.
Cc1noc(C2CCN(c3oc(C)nc3C#N)CC2)n1 gave 6.422%.
Cc1ccc(CSc2nc(N)cc(NCCC(N)=O)n2)cc1 gave 44.65%.
Cc1noc(C)c1CN1CCOC2(CCCN(c3nncs3)C2)C1.O=C(O)C(F)(F)F (stereo not given) gave 26.94%.
Cc1cccc(-n2c(C)cc(=O)[nH]c2=O)c1C gave -15.81%.
CCN1CCCC(CNC(=O)C2(c3cc(C)cc(C)c3)CCC2)C1 (stereo not given) gave -9.012%.
CC(NCC1CCN(CCO)CC1)c1ccc(OC(F)(F)F)cc1 (stereo not given) gave 29.7%.
COCCNC(=O)Cn1cc(OCc2ccc(F)cc2)c(=O)cc1CO gave -39.02%.
CS(=O)(=O)NCCCSCc1cccc2cccnc12 gave 15.56%.
CC(NC(=O)N(C)Cc1ccsc1)c1nncn1C (stereo not given) gave 23.41%.
c1ccc(-c2noc(CCCN3CCCC3Cn3cncn3)n2)cc1 (stereo not given) gave 17.53%.
CCCN(CC(F)(F)F)S(=O)(=O)c1cc(C(N)=O)n(C)c1 gave -26.73%.
CC(=O)N1CCCC(c2ccc(N3CCOCC3)cn2)C1 (stereo not given) gave -5.49%.
N#Cc1cc(F)ccc1Cn1cncn1 gave -5.811%.
CS(=O)(=O)CCC(=O)N1CCC(c2cccc(F)c2)C1 (stereo not given) gave -8.401%.
O=C(CC1CC1)N1CCCn2nnc(CNc3ncccn3)c2C1 gave 14.42%.
Nc1ncc(-c2ccc(C(F)(F)F)cc2)c(C2CCCNC2)n1 (stereo not given) gave 50.32%.
O=C(NCCC1=CCCCC1)C1CCN(c2ccc3nncn3n2)CC1 gave 7.853%.
Cc1nc2cc(F)ccc2cc1C(=O)N1CCN(CC(C)O)CC1 (stereo not given) gave -40.92%.
Cc1nc(CN2CCCC(N(C)Cc3nccn3C)C2)no1 (stereo not given) gave -38.49%.
COc1cccc(Cn2ncnc2CCSC)c1 gave 21.64%.
[H][C@@]12CCCC[C@]1(O)CCN(C(=O)c1cc(CN(CC)CC)oc1C)C2 gave 16.97%.
COc1ccc(F)cc1S(=O)(=O)NCC(c1cccn1C)N(C)C (stereo not given) gave 6.811%.
COC(=O)N1CCN(Cc2ccccc2C(C)(C)C#N)CC1 gave 15.48%.
[H][C@]12CC[C@]([H])(CN(Cc3cscn3)C1)N(C(=O)C1(C#N)CCOCC1)C2 gave -40.88%.
Cc1cc(C(=O)N2CCC3(CC2)CC(c2cccnc2)C(=O)N3)no1.O=C(O)C(F)(F)F (stereo not given) gave 9.06%.
COc1ccc(-c2cc(C[C@@H]3C[C@H](N(C)C)C3(C)C)no2)cc1 gave 3.653%.
CCOCCCNC(=O)Cc1cccc(F)c1 gave -6.534%.
Cc1cc(O)cc(=O)n1CCCC(=O)Nc1n[nH]c2cccc(F)c12 gave 103.9%.

Some entries from above, unchanged:

With Cn1cc(N2CCCC(SCc3nc(C4CC4)no3)C2=O)cn1 (stereo not given) the screen gave -5.692%.
With CCN1CCCC(CNC(=O)C2(c3cc(C)cc(C)c3)CCC2)C1 (stereo not given) the screen gave -9.012%.
With O=C(NCCc1noc(C2CCCC2)n1)c1cn2ccsc2n1 the screen gave -6.383%.
With [H][C@@]12CCCC[C@]1(O)CCN(C(=O)c1cc(CN(CC)CC)oc1C)C2 the screen gave 16.97%.